Test results reported in US20040110687A1, “Methods and compositions for treating gastrointestinal toxicity induced by cytoablative therapy” (priority 2002, published 2004).
Some of these results come from one statement about several compounds together.

Test system: tumor bearing mice
Test: MTD vs 2xMTD CPT-11 with or without RDP58: mortality and tumor response
Settings: 1200 mg/kg CPT-11 + 10 mg/ml RDP58

**Q.** Which “decrease in tumor volume” value does the source give for “Arg-nL-nL-nL-Arg-nL-nL-nL-Gly-Tyr [RDP58]” here?
**A.** Its value is “greater than 80%”.
